No constants are given. Whether binding was seen depends on the method and setting. Some results given as binding are weak or reduced against the parent protein; the word gives no strength.

Protein sequences, listed by entry. Tags and fused reporters are not part of them. Residues count along the entry.
UniProt P14778, residues 18-336: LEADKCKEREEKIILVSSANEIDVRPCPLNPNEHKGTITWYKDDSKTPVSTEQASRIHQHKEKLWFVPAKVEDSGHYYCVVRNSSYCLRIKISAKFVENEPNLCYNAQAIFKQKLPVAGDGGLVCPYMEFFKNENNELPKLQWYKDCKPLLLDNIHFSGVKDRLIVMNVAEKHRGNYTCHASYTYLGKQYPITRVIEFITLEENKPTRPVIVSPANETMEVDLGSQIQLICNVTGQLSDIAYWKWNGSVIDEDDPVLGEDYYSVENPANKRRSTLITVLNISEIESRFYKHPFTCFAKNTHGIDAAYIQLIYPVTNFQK

Experiment [1] addresses recombinant protein comprising the whole extracellular part of IL1RI (UniProt P14778). The experiment can be described thus: SPR (BiaCore 2000), IL1RI ectodomain immobilised on CM5 chip. A general note: In SPR one partner is held on a chip, and binding of the other changes the refractive index at the surface.
For experiment [2] the target is unchanged. The experiment can be described thus: SPR, IL1RI immobilised on sensor chip.

B1: Ilantafin peptide (SEQ ID NO:1), SGRKSSKMQA (peptide)
peptide: SGRKSSKMQA
Regarding B1, the binding entry in experiment [1] and in experiment [2] was “binds” in each case.

The values are drawn from patent publication US20140073556A1 (published 2014).
